From paper doi:10.1101/2021.05.25.445547 come the findings set out here.

The chains behind the UniProt entries cited, without tags or fusion partners.
UniProt P62993, whole entry: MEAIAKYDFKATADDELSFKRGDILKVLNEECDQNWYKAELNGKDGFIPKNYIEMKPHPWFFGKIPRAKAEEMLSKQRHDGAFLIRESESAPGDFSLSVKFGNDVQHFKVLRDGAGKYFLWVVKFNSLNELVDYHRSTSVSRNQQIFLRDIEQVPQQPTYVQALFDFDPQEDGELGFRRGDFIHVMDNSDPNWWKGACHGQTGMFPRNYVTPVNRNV

Read-outs that look alike come from different tables or passages of the source. Results are given in words; binding and its absence hold for the method and conditions named. Some binding calls cover weakened binding; strength is not graded here. For some assays here: Sequences can lack the tags named with a protein.

For experiment [1], the target named is optimized bait-PAR-Grb2 with inserted flexible linker sequences, RFP-fused (UniProt P62993). The experiment can be described thus: subcellular micropatterning.
The target is the same in experiment [2]. The experiment is described as follows: subcellular micropatterning. The source holds these as a separate data set.

On to “MEK1 (mitogen-activated protein kinase kinase 1), GFP-fused (from UniProt Q02750 1-393)”, for which the binding result in experiment [1] was “no binding”.

B1: Grb2-associated-binding protein 1 (Gab1), GFP-fused (protein, UniProt Q13480 1-694)
chain: MSGGEVVCSGWLRKSPPEKKLKRYAWKRRWFVLRSGRLTGDPDVLEYYKNDHAKKPIRIIDLNLCQQVDAGLTFNKKEFENSYIFDINTIDRIFYLVADSEEEMNKWVRCICDICGFNPTEEDPVKPPGSSLQAPADLPLAINTAPPSTQADSSSATLPPPYQLINVPPHLETLGIQEDPQDYLLLINCQSKKPEPTRTHADSAKSTSSETDCNDNVPSHKNPASSQSKHGMNGFFQQQMIYDSPPSRAPSASVDSSLYNLPRSYSHDVLPKVSPSSTEADGELYVFNTPSGTSSVETQMRHVSISYDIPPTPGNTYQIPRTFPEGTLGQTSKLDTIPDIPPPRPPKPHPAHDRSPVETCSIPRTASDTDSSYCIPTAGMSPSRSNTISTVDLNKLRKDASSQDCYDIPRAFPSDRSSSLEGFHNHFKVKNVLTVGSVSSEELDENYVPMNPNSPPRQHSSSFTEPIQEANYVPMTPGTFDFSSFGMQVPPPAHMGFRSSPKTPPRRPVPVADCEPPPVDRNLKPDRKVKPAPLEIKPLPEWEELQAPVRSPITRSFARDSSRFPMSPRPDSVHSTTSSSDSHDSEENYVPMNPNLSSEDPNLFGSNSLDGGSSPMIKPKGDKQVEYLDLDLDSGKSTPPRKQKSSGSGSSVADERVDYVVVDQQKTLALKSTREAWTDGRQSTESETPAKSVK
For the molecule B1, the binding entry in experiment [2] is reported as “binds”.
